Data taken from PMC11844279.
Results are given in words; binding and its absence hold for the method and conditions named. In cells and extracts the contact can be indirect. Some results given as binding are weak or reduced against the parent protein; the word gives no strength.

Protein sequences, listed by entry. Tags and fused reporters are not part of them.
UniProt Q96DH6: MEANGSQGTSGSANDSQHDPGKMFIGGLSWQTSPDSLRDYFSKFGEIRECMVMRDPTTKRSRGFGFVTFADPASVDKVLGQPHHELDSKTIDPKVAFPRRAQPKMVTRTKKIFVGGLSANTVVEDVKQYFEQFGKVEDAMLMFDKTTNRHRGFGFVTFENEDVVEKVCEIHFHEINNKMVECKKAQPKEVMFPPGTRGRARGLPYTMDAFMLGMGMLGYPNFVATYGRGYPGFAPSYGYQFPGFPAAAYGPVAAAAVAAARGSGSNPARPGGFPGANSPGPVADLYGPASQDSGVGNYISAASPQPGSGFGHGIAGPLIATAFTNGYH
UniProt P08670: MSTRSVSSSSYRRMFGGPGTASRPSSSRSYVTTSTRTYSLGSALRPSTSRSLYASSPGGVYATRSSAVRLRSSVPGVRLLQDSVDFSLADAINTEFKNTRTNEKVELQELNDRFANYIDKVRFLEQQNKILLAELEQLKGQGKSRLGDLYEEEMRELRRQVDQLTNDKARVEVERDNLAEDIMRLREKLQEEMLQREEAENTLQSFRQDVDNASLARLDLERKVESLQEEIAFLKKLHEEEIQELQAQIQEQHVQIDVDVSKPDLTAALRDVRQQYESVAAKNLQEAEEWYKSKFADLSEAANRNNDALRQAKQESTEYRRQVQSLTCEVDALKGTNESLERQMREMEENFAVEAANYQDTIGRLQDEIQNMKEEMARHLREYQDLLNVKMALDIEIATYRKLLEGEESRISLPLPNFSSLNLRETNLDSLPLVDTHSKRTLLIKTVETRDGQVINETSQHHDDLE

Biological target: Musashi RNA binding protein 2 (MSI2) (human (endogenous in MDA-MB-231)) (UniProt Q96DH6)
Experiment: co-IP; MSI2 co-IP products (called Flag-MSI2 pulldown) from untreated MDA-MB-231 and DEHP-exposed clone #1 cells, western blotting for MSI2 and vimentin

## vimentin (from UniProt P08670 1-466)
  binding: binds
